In patent publication US20150110766A1 (UNIVERSITY ULM, published 2015) one finds binding data, which are given here for 1 molecule.

Results are given in words; binding and its absence hold for the method and conditions named. Binding can be weak; no strength is given.

The target of the assay is iC3b. The assay can be described thus: SPR, analyte over iC3b surface. On the technique in general: SPR reads the build-up and loss of mass on a sensor chip optically.

B1: mini-FH (designed binder)
chain: EDCNELPPRRNTEILTGSWSDQTYPEGTQAIYKCRPGYRSLGNIIMVCRKGEWVALNPLRKCQKRPCGHPGDTPFGTFTLTGGNVFEYGVKAVYTCNEGYQLLGEINYRECDTDGWTNDIPICEVVKCLPVTAPENGKIVSSAMEPDREYHFGQAVRFVCNSGYKIEGDEEMHCSDDGFWSKEKPKCVEISCKSPDVINGSPISQKIIYKENERFQYKCNMGYEYSERGDAVCTESGWRPLPSCEEAGGGGGGGGGGGGGKCGPPPPIDNGDITSFPLSVYAPASSVEYQCQNLYQLEGNKRITCRNGQWSEPPKCLHPCVISREIMENYNIALRWTAKQKLYSRTGESVEFVCKRGYRLSSRSHTLRTTCWDGKLEYPTCAKR
In the case of B1, the binding result is “binds”.
